B1: tRNA (parent)
chain: GUUCCGUUGGCGUAAUGGUAACGCGUCUCCCUCCUAAGGAGAAGACUGCGGGUUCGAGUCCCGUACGGAACG

Variants at the floor of the assay are shown more often than the library holds them.

This data set covers variants of B1. As to the kind of experiment: yeast fitness relative to wild type (ratio to wild type); higher = fitter; tRNA-Arg(CCU), competitive growth, 37 C, YPD. In a few lines:
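Amplicons of the tRNA-Arg(CCU) gene were sequenced, 100-nucleotide paired-end, from the start population and from each end population of a pooled yeast competition. The competition, in six parallel replicates, lasted 24 hours in YPD at 37°C. Fitness relative to wild type was calculated from changes in genotype frequencies. Genotypes had to have ≥ 100 starting reads, and estimates < 0.5 were set to 0.5.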
On to U2A C5U C29G A37U A65G, for which the yeast fitness is ≤ 0.5. In the case of A20U A21C C27A G41A, the yeast fitness is ≤ 0.5. Turning to U32G C61U C66U, the yeast fitness was 0.577.

For the variant C5A C11G C31G, the yeast fitness is ≤ 0.5. Regarding U7C C34U, the yeast fitness amounted to 0.699. Take U7A A40G: the yeast fitness was 0.73. Take C4A C5U A21C C34G A40C G50C A57U: the yeast fitness was ≤ 0.5.

Turning to C29A A45C C46G G68C, the yeast fitness is ≤ 0.5.

Take G17C U35A G39A: the yeast fitness was ≤ 0.5.

With G17A C46U G51A G56A, the yeast fitness is ≤ 0.5. Regarding G6C A42C C49U C55U G68C, the yeast fitness is ≤ 0.5. The value for G41C A42C A70C was ≤ 0.5; that for U7C C33G A40G was ≤ 0.5; that for A14G C24G A69C was ≤ 0.5. Consider U19A C22U U32C G67U, for which the yeast fitness is ≤ 0.5.

U2C A15U A20U C60G A69U: the yeast fitness is ≤ 0.5. The value for C5U C11A A43U C66U was 0.621; that for U16C U26A G38C was ≤ 0.5. As to C4A U13G C49A, the yeast fitness is ≤ 0.5. In the case of C24G C30U C31G C61G, the yeast fitness was ≤ 0.5.

Take C11A U35G: the yeast fitness was 0.514. In the case of C5A C46A G56C G68A A70G, the yeast fitness is ≤ 0.5. Turning to G9C C11A A40C U54A G68C A69U, the yeast fitness was ≤ 0.5. With C27U C61U, the yeast fitness was determined as 1.01. In the case of G6C G17A A36U A57G U59C A69U, the yeast fitness was ≤ 0.5. The value for A21U C24G G52C was ≤ 0.5; that for C29U G38C C49U G68A was ≤ 0.5. G12A A15U A21C: the yeast fitness was ≤ 0.5.

Take C5A A20C C22A A36C: the yeast fitness is ≤ 0.5.

In the case of U13C U47C C62U C66U, the yeast fitness is ≤ 0.5. Turning to A14G C27A U59G, the yeast fitness is ≤ 0.5. C4U C30A C62U: the yeast fitness is 0.792.

On to G10A C29U C34U G50A C55G, for which the yeast fitness was ≤ 0.5. Next, G10A C24G C46G: ≤ 0.5. Take U16G U26G A36G C49G: the yeast fitness is ≤ 0.5. Turning to U28C A57G C66G, the yeast fitness is ≤ 0.5. A65C G68A: the yeast fitness turned out to be 0.767. With G25A C49A U54G, the yeast fitness was ≤ 0.5. On to C5A A15C C29A U32C A42C A45G, for which the yeast fitness was ≤ 0.5. Take A20G C27A C31A C61U: the yeast fitness is ≤ 0.5. As for U3G C11U U19C A20U A42C, the yeast fitness is ≤ 0.5. For the variant C22U C24A C30A A65U A69C, the yeast fitness is ≤ 0.5. In the case of C5A C22G C29A A43U C60U G67C, the yeast fitness is ≤ 0.5. For the variant U8G C34U A43C U53G, the yeast fitness was ≤ 0.5. Consider C22G G25A C33G C49U G56C, for which the yeast fitness is ≤ 0.5. For the variant G23A A36G C61U A65U, the yeast fitness was ≤ 0.5. For the variant U32C C46G C62U, the yeast fitness came to 0.733. Next, C4A U7A U8A C60A: ≤ 0.5; C11U A14G G23C A40G: ≤ 0.5; A14C C29G C30A G63C: ≤ 0.5. The value for C5A A20U C29A A65U was ≤ 0.5; that for U16A C60A G67C was ≤ 0.5; that for G23U C29U C31G C33A was ≤ 0.5. With G41A C61A, the yeast fitness is 0.742. The value for A45U G50A C55G A70U was ≤ 0.5; that for C34U U54C C61A was ≤ 0.5. With G6A C29G U32C A69C, the yeast fitness is ≤ 0.5. Next, C4G C31U A36G A45U: ≤ 0.5. C11G G68C: the yeast fitness stood at 0.597.

Turning to C33G G39A C55U, the yeast fitness is ≤ 0.5. Next, C33A A42C A45C: ≤ 0.5; U13A A40G A42G A57C: ≤ 0.5. In the case of A42C C62U, the yeast fitness was 0.829. The value for G41C C60U U64G was ≤ 0.5. Take U2C C24U U32G A40U U64G: the yeast fitness is ≤ 0.5. In the case of U2G C30U U47A U59A C60U C62G C66U, the yeast fitness was ≤ 0.5. Consider G10A G23A G25A G38A A69C, for which the yeast fitness is ≤ 0.5. Consider G9C C34G U64A, for which the yeast fitness was ≤ 0.5. With G12A G52A U59A A69C A70C, the yeast fitness was ≤ 0.5. Next, U2G A21C C22U C31U C33U C62A: ≤ 0.5. Regarding U3A C11G C30G G41A C60U, the yeast fitness is ≤ 0.5. For the variant U19A C22G C61A, the yeast fitness was ≤ 0.5.

For the variant A20G A21C G25A G39C C49U A65U, the yeast fitness was ≤ 0.5.

With C11A G23A, the yeast fitness was ≤ 0.5. For G12A U35C A42G A65U, the yeast fitness is ≤ 0.5. The value for A15G U35A A65C was ≤ 0.5; that for U8A U26C G38A C62U was ≤ 0.5.

Consider U7A A21G C61G C66G, for which the yeast fitness is ≤ 0.5. In the case of C22G G23A G38A G56C, the yeast fitness is ≤ 0.5. Regarding C4U C5G C62U C66G, the yeast fitness is ≤ 0.5.

As for G6A C11A U32A C34G, the yeast fitness was ≤ 0.5.

As for G12A U13C U16A U19G G23A A57U U59A A69G, the yeast fitness was ≤ 0.5.

C5G U26C C60G C61G: the yeast fitness was ≤ 0.5.

On to U35A A42G A43C C66U, for which the yeast fitness was ≤ 0.5. The value for U2G U3G G18A A20C C49U C55U was ≤ 0.5.

C5A A57U: the yeast fitness was found to be 0.669.

C4U G9A: the yeast fitness was 0.927. In the case of U2A G9A A37G C55A A57U, the yeast fitness was ≤ 0.5. G23C C33U G39A C60A: the yeast fitness was ≤ 0.5.

As to C30U C60G C62G A65C A69C, the yeast fitness is ≤ 0.5. Consider C5A U16G C27U C29U A36U G41A A69C, for which the yeast fitness was ≤ 0.5.

Consider G10A A15C G23C A45C C66G, for which the yeast fitness was ≤ 0.5. Next, C29U U35A C61G: ≤ 0.5. U2G A43C C62G G63A C66G A69G: the yeast fitness was ≤ 0.5. Consider C34U A37U G67C, for which the yeast fitness was ≤ 0.5.

As to G12A C61G, the yeast fitness stood at 0.605. Turning to C5G C31G, the yeast fitness worked out at 0.824.

With C24G U26A G41C G68C, the yeast fitness is ≤ 0.5. For C30G A37C A45G, the yeast fitness came out at 0.633. As for C30U A40U G51C A57U, the yeast fitness was ≤ 0.5.

As to C22U A43U U59C C66U, the yeast fitness was ≤ 0.5. With C24A U32C C33U, the yeast fitness was ≤ 0.5. Take G18A U59C A69G: the yeast fitness was ≤ 0.5. With G10A C24U C29U C30G, the yeast fitness was ≤ 0.5. G10A C29G G52A: the yeast fitness was ≤ 0.5.

Consider C5G C11G A14C U35G A45C A57C C62G G68C, for which the yeast fitness was ≤ 0.5. For the variant U7A C27A A37C C55G, the yeast fitness was ≤ 0.5. C22U C31G A43U C60A: the yeast fitness was ≤ 0.5. A36C A43G G48C: the yeast fitness was ≤ 0.5.

Regarding G23C C30U C33A G39A, the yeast fitness was ≤ 0.5. Turning to U3A G9A U19A G44C C61U C62G, the yeast fitness is ≤ 0.5. For U2C G48C, the yeast fitness is 1.11. In the case of C5A U16A A45G G50A C55A, the yeast fitness is ≤ 0.5. As to U7C A21U A36U A37C, the yeast fitness is ≤ 0.5.

For A36C A57U, the yeast fitness amounted to 0.509. Consider C5G G25A C30A C31A C49U C55G, for which the yeast fitness was ≤ 0.5.

As for C11A A21G C22U A65G, the yeast fitness was ≤ 0.5. For C29G C31G C49A, the yeast fitness was ≤ 0.5.

In the case of U3A A20U A45G G50A G52A, the yeast fitness is ≤ 0.5. On to U2C U8A G17C G38A U53C C66G, for which the yeast fitness was ≤ 0.5. Next, A36U C49A C62G: ≤ 0.5.

Take U16A C27U G38A: the yeast fitness is ≤ 0.5. Turning to C4U U7G C34G C61U, the yeast fitness was ≤ 0.5. Next, G9C C22A G58A C61U: ≤ 0.5; G39A A70U: 0.915. As for U7G A43G C46G, the yeast fitness is ≤ 0.5.

Regarding A21G U35A A69C, the yeast fitness was ≤ 0.5. Consider G9C G25C C31U A70G, for which the yeast fitness was ≤ 0.5.

Turning to C11G G44C C61U, the yeast fitness was ≤ 0.5. Regarding C4G C5U C55G A57G, the yeast fitness is ≤ 0.5. Consider G12C A20U C22G G50A, for which the yeast fitness was ≤ 0.5. For the variant A14U G51C G52A G56C, the yeast fitness is ≤ 0.5. Consider A15U G39A A65U, for which the yeast fitness is ≤ 0.5. Turning to G17A A21G G48C, the yeast fitness is ≤ 0.5.

Consider U7G A21C C34U, for which the yeast fitness was ≤ 0.5. As for A20C A36C U47C, the yeast fitness was ≤ 0.5. For the variant U2G C27G C33U U54C, the yeast fitness is ≤ 0.5. In the case of U28C U64C, the yeast fitness came out at 0.877. With U2G C5A A20G C55G, the yeast fitness was ≤ 0.5. U28A C31A: the yeast fitness was found to be 0.687. Next, A21C C29U C31G A43U A57U: ≤ 0.5.

Take G12A A37G A42U G52C G67C A69U: the yeast fitness is ≤ 0.5.

Regarding U7A A20G G23A U26G C61U, the yeast fitness was ≤ 0.5. For U2G C33G A36U A57U, the yeast fitness was ≤ 0.5. As to G23A A43U G63C C66U, the yeast fitness is ≤ 0.5.

G12C C27G A36C G44A: the yeast fitness was ≤ 0.5.

Take G6A C11A U19A A69G: the yeast fitness is ≤ 0.5. The value for C5G U26G C55G A65C was ≤ 0.5; that for A14C C34A A65U was ≤ 0.5. The value for C5G A14U G18A A21U was ≤ 0.5; that for C22G C31U C49U C61A was ≤ 0.5; that for C4G A14C C30U A40U was ≤ 0.5.

As to U35C A42U, the yeast fitness was 0.819. Consider U8A U26A C29A C66A A70U, for which the yeast fitness was ≤ 0.5.

Take G6U A40G C49A C61G: the yeast fitness is ≤ 0.5. For U8C U28C A37C G56A U59C, the yeast fitness was ≤ 0.5. Consider U13A C30A C31U A43C U53G G56A, for which the yeast fitness was ≤ 0.5. Turning to C11U G39C U59A, the yeast fitness was ≤ 0.5. Regarding G63A A69C, the yeast fitness came to 0.941. The value for U7A A14U A57U was ≤ 0.5. A20G U28C C33G G38A U64G: the yeast fitness is ≤ 0.5. On to G12A U16C C27A A70C, for which the yeast fitness was ≤ 0.5.

On to C22G C49G U64G A65G A70U, for which the yeast fitness is ≤ 0.5. U7C G23A G25A A36U A43U: the yeast fitness was ≤ 0.5. C31U C33G A36C A42C C61G: the yeast fitness was ≤ 0.5. For the variant A42U A45U, the yeast fitness is 1.09. Turning to C55G C62A, the yeast fitness was determined as 0.619.

Values taken from the RNAGym collection of RNA variant scans (doi:10.1126/science.aae0568).
